These are yes or no findings as the source states them, for the method shown. A result given as binding can be weak or reduced; the word gives no strength.
Biological target: BD-UmSee1 (Ustilago maydis)
Assay: two-hybrid

binding: binds
Substance: AD-ZmSIP2 (from UniProt A0A1D6G9Q0)
